Results published in paper PMC10099996 (Chembiochem, 2022).
In brackets after ≈: the same amount, converted by molar mass.

System: B. subtilis 168
Assay: MIC determination
Assay type: cell-based
Conditions: Table 1; lysogeny broth (LB) supplemented with 0.3 mM ZnSO4; 37 °C, 18 h; visual inspection; median of a minimum of triplicates

- MIC B. subtilis 168: 0.25 µg/mL (≈ 0.173 µM)
Compound: CN[C@H](CC(C)C)C(=O)N[C@H]1C(=O)N[C@@H](CC(N)=O)C(=O)N[C@H]2C(=O)N[C@H]3C(=O)N[C@H](C(=O)N[C@H](C(=O)O)c4cc(O)cc(O)c4-c4cc3ccc4O)[C@H](O)c3ccc(c(Cl)c3)Oc3cc2cc(c3O[C@@H]2O[C@H](CO)[C@@H](O)[C@H](O)[C@H]2O[C@H]2C[C@](C)(N)[C@H](O)[C@H](C)O2)Oc2ccc(cc2Cl)[C@H]1O [Vancomycin]
